# Further values from the same series stand in other lists.
# Assay: In vivo individual difference analysis: individual plasma concentration versus time in rats (Example 8)
# Set-up: species or system SD rats
# Details: intragastric 1 mg/kg, listed as Hydrochloride Salt of Compound of Formula I
# Experimental: Compound of Formula I and salts thereof (sulfate, hydrochloride salt, phosphate, maleate), supplied by Shanghai Jingxin Biopharmaceutical Co., Ltd. • Strain: SD rats; Gender: male; Body weight: about 250 grams; Source: shanghai Jiesijie Experimental Animal Co., Ltd Route: single intragastric administration; Capacity: measured in 10 mL/kg body weight Preparation: weighing appropriate amount of the free base or salt of the compound of Formula I, adding a small amount of 0.5% CMC-Na to grind, adding 0.5% CMC-Na to the volume. The concentration is measured as the base. 20 SD rats were divided into 5 groups with 4 rats in each group, fasted for 12 h and drank freely before administration. […] The blood was anticoagulated with 1% heparin, the plasma was separated by 8000 rpm centrifugation for 4 min and stored at -40° C. for testing. LC-MS/MS Method. Pharmacokinetic parameters after administration in rats were calculated using a non-compartmental model of DAS 2.0 software.
structure (smiles),measurement,setting,value
"CN(C)C(=O)N[C@H]1CC[C@H](CCN2CCN(c3cccc4ccsc34)CC2)CC1 [Example 2, N′-[trans-4-[2-[7-(benzo[b]thiophene)-7-piperazinyl]ethyl]cyclohexyl]-N,N-dimethylurea]",Plasma Concentrations of Compound of Formula I,"5 min after administration, Mean ± SD",10.9 ± 15.0 ng/mL
same,Plasma Concentrations of Compound of Formula I,"5 min after administration, rat 1♂",0.448 ng/mL
same,Plasma Concentrations of Compound of Formula I,"5 min after administration, rat 2♂",1.02 ng/mL
same,Plasma Concentrations of Compound of Formula I,"5 min after administration, rat 3♂",9.68 ng/mL
same,Plasma Concentrations of Compound of Formula I,"5 min after administration, rat 4♂",32.6 ng/mL
same,Plasma Concentrations of Compound of Formula I,"0.167 h after administration, Mean ± SD",11.4 ± 9.40 ng/mL
same,Plasma Concentrations of Compound of Formula I,"0.167 h after administration, rat 1♂",5.53 ng/mL
same,Plasma Concentrations of Compound of Formula I,"0.167 h after administration, rat 2♂",10.3 ng/mL
same,Plasma Concentrations of Compound of Formula I,"0.167 h after administration, rat 3♂",4.72 ng/mL
same,Plasma Concentrations of Compound of Formula I,"0.167 h after administration, rat 4♂",25.0 ng/mL
same,Plasma Concentrations of Compound of Formula I,"1 h after administration, Mean ± SD",30.3 ± 9.55 ng/mL
same,Plasma Concentrations of Compound of Formula I,"2 h after administration, Mean ± SD",17.1 ± 5.86 ng/mL
same,Plasma Concentrations of Compound of Formula I,"2 h after administration, rat 1♂",19.4 ng/mL
same,Plasma Concentrations of Compound of Formula I,"2 h after administration, rat 2♂",11.5 ng/mL
same,Plasma Concentrations of Compound of Formula I,"2 h after administration, rat 3♂",13.3 ng/mL
same,Plasma Concentrations of Compound of Formula I,"2 h after administration, rat 4♂",24.3 ng/mL
same,Plasma Concentrations of Compound of Formula I,"4 h after administration, Mean ± SD",5.86 ± 2.45 ng/mL
same,Plasma Concentrations of Compound of Formula I,"4 h after administration, rat 1♂",5.99 ng/mL
same,Plasma Concentrations of Compound of Formula I,"4 h after administration, rat 2♂",3.04 ng/mL
same,Plasma Concentrations of Compound of Formula I,"4 h after administration, rat 3♂",5.43 ng/mL
same,Plasma Concentrations of Compound of Formula I,"4 h after administration, rat 4♂",8.99 ng/mL
same,Plasma Concentrations of Compound of Formula I,"6 h after administration, Mean ± SD",2.59 ± 1.02 ng/mL
same,Plasma Concentrations of Compound of Formula I,"6 h after administration, rat 1♂",2.26 ng/mL
same,Plasma Concentrations of Compound of Formula I,"6 h after administration, rat 2♂",1.46 ng/mL
same,Plasma Concentrations of Compound of Formula I,"6 h after administration, rat 3♂",2.74 ng/mL
same,Plasma Concentrations of Compound of Formula I,"6 h after administration, rat 4♂",3.90 ng/mL
same,Plasma Concentrations of Compound of Formula I,"9 h after administration, Mean ± SD",1.05 ± 0.295 ng/mL
same,Plasma Concentrations of Compound of Formula I,"9 h after administration, rat 1♂",0.932 ng/mL
same,Plasma Concentrations of Compound of Formula I,"9 h after administration, rat 2♂",0.683 ng/mL
same,Plasma Concentrations of Compound of Formula I,"9 h after administration, rat 3♂",1.32 ng/mL
same,Plasma Concentrations of Compound of Formula I,"9 h after administration, rat 4♂",1.25 ng/mL
same,Plasma Concentrations of Compound of Formula I,"12 h after administration, Mean ± SD",0.833 ± 0.636 ng/mL
same,Plasma Concentrations of Compound of Formula I,"12 h after administration, rat 1♂",0.514 ng/mL
same,Plasma Concentrations of Compound of Formula I,"12 h after administration, rat 2♂",0.299 ng/mL
same,Plasma Concentrations of Compound of Formula I,"12 h after administration, rat 3♂",1.74 ng/mL
same,Plasma Concentrations of Compound of Formula I,"12 h after administration, rat 4♂",0.777 ng/mL
same,Plasma Concentrations of Compound of Formula I,"24 h after administration, Mean ± SD",0.336 ± 0.210 ng/mL
same,Plasma Concentrations of Compound of Formula I,"24 h after administration, rat 1♂",0.139 ng/mL
same,Plasma Concentrations of Compound of Formula I,"24 h after administration, rat 2♂",0.423 ng/mL
same,Plasma Concentrations of Compound of Formula I,"24 h after administration, rat 3♂",0.591 ng/mL
same,Plasma Concentrations of Compound of Formula I,"24 h after administration, rat 4♂",0.190 ng/mL

# From US20210309631A1, “SALT OF CYCLOHEXANE DERIVATIVE” (priority 2018, published 2021)
